Test results as given in publication PMC7904156.
These are yes or no findings as the source states them, for the method shown. Binding calls can cover weak binding; strength is not graded here. Tags and fused reporters may be left off the sequences shown.

By UniProt entry, the sequences of proteins in these tests, tags left out. Where a name states a change or a piece, a line headed by the entry shows the natural chain unless it says otherwise.
UniProt Q9FYA2: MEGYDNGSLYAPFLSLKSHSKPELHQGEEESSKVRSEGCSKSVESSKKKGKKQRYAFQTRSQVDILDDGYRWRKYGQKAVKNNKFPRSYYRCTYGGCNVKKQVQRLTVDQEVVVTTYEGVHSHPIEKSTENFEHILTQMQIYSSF

B1: JAZ8, full length, fused to the AD domain of pGADT7 (protein, UniProt Q8LBM2 1-131)
chain: MKLQQNCDLELRLFPTSYDSDSSDTTSVVESTSSGNPQPNEESQRITIFYNGKMCFSSDVTHLQARSIISIASREMKTKSSSNGSDPPNKSTSFHHNQLPNPKASMKKSLQSFLQKRKIRIQATSPYHSRR
B2: the 83 N-terminal residues of JAZ8 (containing the ZIM domain), fused to the AD domain of pGADT7 (domain or fragment, UniProt Q8LBM2 1-83)
chain: MKLQQNCDLELRLFPTSYDSDSSDTTSVVESTSSGNPQPNEESQRITIFYNGKMCFSSDVTHLQARSIISIASREMKTKSSSN

Assays:
[1] = target: WRKY75 WRKY domain mutant (in pGBKT7) (Arabidopsis thaliana) (UniProt Q9FYA2); assay: two-hybrid; directed test: bait (pGBKT7) and prey (pGADT7) vectors co-transformed into yeast; growth on synthetic dropout medium lacking Leu, Trp, His and Ade
[2] = target: WRKY75 zinc finger domain mutant (in pGBKT7) (Arabidopsis thaliana) (UniProt Q9FYA2); assay: as above

Row | Binder | binding [1] | binding [2]
1 | B1 | binds | binds
2 | B2 | no binding | no binding
